Source: patent publication US20250012810A1 (NORDIC BIOSCIENCE A S, published 2025)
No constants are given. Whether binding was seen depends on the method and setting. Some binding calls cover weakened binding; strength is not graded here.

Target: T1, standard peptide … (synthetic peptide, C-terminal neo-epitope of collagen type VII alpha 1) (human)
T1 sequence (peptide): GPPGPPGRLV
Test: competitive ELISA; standard peptide competes with the coated biotin-… for the HRP-labelled antibody

B1: monoclonal antibody raised against the C-terminal neo-epitope amino acid sequence …-COOH (C7) (antibody, mouse IgG1, kappa, V domains shown)
VH: EVQLQQSGPELVKPGASVKISCKTSGYTFIENTMNWVKQSHGKSLEWIGGINPKIGGSIYNQKFQDKATLTVDKSSSTAYMELRSLTSDDSAVYYCARGIYDEGWHFDVWGAGTTVTVSS
VL: DIVMTQAAFSNPVTLGTSASISCRSSQSLLYSNGITYLYWYLQKPGQSPQLLIYQMSNLASGVPDRFSSSGSGTDFTLRISRVEAEDVGVYYCAQNLELPWTFGGGTKLEIKR
notes: also called monoclonal antibody raised against C7; HRP-labeled monoclonal antibody
- binding: binds
